According to publication PMC5146945:
No constants are given. Whether binding was seen depends on the method and setting. Binding seen in cells or lysates may run through a third protein. A yes stands for co-enrichment or nearness to the bait. Other partners may have been found.

Target: CaTLP1-FLAG fusion protein (chickpea)
Assay: affinity purification with mass spectrometry; anti-FLAG antibody on rProtein A Sepharose; extract of 5-week-old CaTLP1-FLAG overexpressing Arabidopsis (OE-11) in 50 mM HEPES-KOH pH 7.5, 0.15 M NaCl, 0.5% Triton X-100, 0.1% Tween 20; 4 °C, 16 h; LC-ESI/MS/MS of the immunoprecipitate

- binding: binds
B1: Casein kinase 1-like protein 2 (CK2) from Arabidopsis (protein, UniProt Q9CAI5 1-465)
chain: MEPRVGNKFRLGRKIGGGSFGEIYLGTNIQTNEEVAIKLENVKTKHPQLLYESKLYKVLQGGTGVPNVKWYGVEGDYNVLVIDLLGPSLEDLFNFCSRKLSLKTVLMLADQMINRIEFVHQKSFLHRDIKPDNFLMGLGRRANQVYVIDFGLAKKYRDSNHQHIPYRENKNLTGTARYASMNTHLGIEQSRRDDLESLGFVLMYFLKGSLPWQGLKAGNKKQKYEKISEKKVSTSIEALCRGYPSEFASYFHYCRSLRFDDKPDYAYLKRLFRDLFIREGFQFDYVFDWTILKYQQSQISTPPPRHHGPVVGPSSALPPAITSAERPSGGDEARPSGWSSGIPRRNSGQIFNSGSLAKQKAPVSSDPAISKDVVLSSSSFLRATGSSRRAAVSSSREAAVLGTDSEPSNPQIVEAGSGSNSKIPVSRNSPIVSSEINKLSSPSRATTSVMKNYEANLKGIESLHF
